{
  "source": "PubChem BioAssay AID220",
  "about": "(DTP/NCI, 2004)",
  "tested_on": "CD8F1 mice, subcutaneous mammary adenocarcinoma, T/C%",
  "experiment": "NCI In Vivo Anticancer Drug Screen. Data for tumor model Mammary Adenocarcinoma CD8F1 (subcutaneous) in CD8F1",
  "conditions": "higher T/C = larger tumour",
  "outline": "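Tumor-bearing mice, transplantable model; readout survival or tumor size; value = treated (T) / vehicle control (C).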",
  "key": {"[1]": {"conditions": "T/C endpoint: median tumor weight change, dose: 1000.0 mg/kg/injection, schedule: Q01DX001 (ip), vehicle: saline with Tween-80"}, "[2]": {"conditions": "T/C endpoint: median tumor weight change, dose: 2000.0 mg/kg/injection, schedule: Q01DX001 (ip), vehicle: saline with Tween-80"}},
  "note": "The list is a part of this screen's results and no random one: it gathers tests that were run many times, whatever their T/C, doses with no T/C, and many T/C values between a quarter and a half above the control. Other doses and runs of a compound stand elsewhere. T/C: endpoint of the treated group in % of that of the vehicle group. Schedule codes are those of the source, read here as Q, the interval in days (D) or hours (H), X, the number of doses. Some T/C values carry the count of animals alive at the toxicity check (mostly the fifth day); without a count, all were alive then. Some doses have a count of surviving animals in place of a T/C: the source holds a T/C of zero for them, seemingly a mark for toxic or unscored doses. Survivors were counted at the toxicity check, usually on the fifth day, unless a day is given; later deaths do not show. Some entries were tested several times; their values stand side by side, smallest first.",
  "data": [
    {"smiles": "COc1cccc2c1C(=O)c1c(O)c3c(c(O)c1C2=O)C[C@@](O)(/C(CO)=N/NC(=O)c1ccc(Cl)c(Cl)c1)C[C@@H]3OC1CC(N)C(O)C(C)O1", "note": "(stereo partly specified)", "values": [
      {"measurement": "T/C", "setting": "T/C endpoint: mean tumor weight, dose: 0.75 mg/kg/injection, schedule: Q07DX006 (ip), vehicle: saline, evaluated on day 41", "value": "125 % of control [9 of 10 alive]"},
      {"measurement": "survivor count", "setting": "T/C endpoint: mean tumor weight, dose: 6.0 mg/kg/injection, schedule: Q07DX005 (ip), vehicle: saline", "value": "6 of 10"},
      {"measurement": "T/C", "setting": "T/C endpoint: mean tumor weight, dose: 6.0 mg/kg/injection, schedule: Q07DX006 (ip), vehicle: saline, evaluated on day 41", "value": "132 % of control"},
      {"measurement": "survivor count", "setting": "T/C endpoint: median tumor weight (est.), dose: 64.0 mg/kg/injection, schedule: Q07DX005 (ip), vehicle: suspension in saline", "value": "3 of 10 on day 30"}
    ]},
    {"smiles": "CS(C)=O", "values": [
      {"measurement": "T/C", "setting": "T/C endpoint: median tumor weight (est.), dose: 1.5 grams/kg/injection, schedule: Q07DX005 (ip), vehicle: saline, evaluated on day 32", "value": "145 % of control"},
      {"measurement": "T/C", "setting": "T/C endpoint: median tumor weight (est.), dose: 3.0 grams/kg/injection, schedule: Q07DX005 (ip), vehicle: saline, evaluated on day 30", "value": "133 % of control [7 of 10 alive]"}
    ]},
    {"smiles": "O=C(O)O", "values": [
      {"measurement": "T/C", "setting": "T/C endpoint: median tumor weight (est.), dose: 50.0 mg/kg/injection, schedule: Q07DX005 (ip), vehicle: saline, evaluated on day 30", "value": "134 % of control"}
    ]},
    {"smiles": "c1ccc(CN2CCOC2)cc1", "values": [
      {"measurement": "survivor count", "setting": "T/C endpoint: median tumor weight (est.), dose: 200.0 mg/kg/injection, schedule: Q07DX005 (ip), vehicle: suspension in saline", "value": "0 of 10 on day 30"},
      {"measurement": "survivor count", "setting": "T/C endpoint: median tumor weight (est.), dose: 400.0 mg/kg/injection, schedule: Q07DX005 (ip), vehicle: suspension in saline", "value": "0 of 10 on day 30"}
    ]},
    {"smiles": "O=C1N(CC2CO2)CCN1CC1CO1", "note": "(stereo unspecified)", "values": [
      {"measurement": "survivor count", "setting": "T/C endpoint: median tumor weight change, dose: 250.0 mg/kg/injection, schedule: Q01DX001 (ip), vehicle: suspension in saline", "value": "1 of 10 on day 29"},
      {"measurement": "survivor count", "setting": "T/C endpoint: median tumor weight change, dose: 500.0 mg/kg/injection, schedule: Q01DX001 (ip), vehicle: suspension in saline", "value": "0 of 10 on day 29"},
      {"measurement": "survivor count", "setting": "T/C endpoint: median tumor weight change, dose: 1000.0 mg/kg/injection, schedule: Q01DX001 (ip), vehicle: suspension in saline", "value": "0 of 10 on day 29"},
      {"measurement": "survivor count", "setting": "T/C endpoint: median tumor weight change, dose: 2000.0 mg/kg/injection, schedule: Q01DX001 (ip), vehicle: suspension in saline", "value": "0 of 10 on day 29"}
    ]},
    {"smiles": "NC(=O)c1ncn2c(=O)n(CCCl)nnc12", "values": [
      {"measurement": "survivor count", "setting": "T/C endpoint: median tumor weight change, dose: 100.0 mg/kg/injection, schedule: Q01DX001 (ip), vehicle: suspension in saline", "value": "6 of 10 on day 28"},
      {"measurement": "survivor count", "setting": "T/C endpoint: median tumor weight change, dose: 200.0 mg/kg/injection, schedule: Q01DX001 (ip), vehicle: suspension in saline", "value": "4 of 10 on day 28"},
      {"measurement": "survivor count", "setting": "T/C endpoint: median tumor weight change, dose: 400.0 mg/kg/injection, schedule: Q01DX001 (ip), vehicle: suspension in saline", "value": "0 of 10 on day 28"}
    ]},
    {"smiles": "C1OCN2CSCC12", "note": "(stereo unspecified)", "values": [
      {"measurement": "survivor count", "setting": "[1]", "value": "0 of 10 on day 29"},
      {"measurement": "survivor count", "setting": "[2]", "value": "0 of 10 on day 29"}
    ]},
    {"smiles": "O=c1[nH]cccc1O", "values": [
      {"measurement": "survivor count", "setting": "T/C endpoint: median tumor weight change, dose: 500.0 mg/kg/injection, schedule: Q01DX001 (ip), vehicle: saline with Tween-80", "value": "5 of 10 on day 46"},
      {"measurement": "survivor count", "setting": "[1]", "value": "0 of 10 on day 46"},
      {"measurement": "survivor count", "setting": "[2]", "value": "0 of 10 on day 46"}
    ]},
    {"smiles": "[N-]=[N+]=[N-]", "values": [
      {"measurement": "survivor count", "setting": "T/C endpoint: median tumor weight change, dose: 48.0 mg/kg/injection, schedule: Q01DX001 (ip), vehicle: saline", "value": "0 of 10 on day 31"}
    ]},
    {"smiles": "COc1cccc2c1C(=O)c1c(O)c3c(c(O)c1C2=O)CC(O)(/C(C)=N/NC(=O)CCC(=O)N/N=C(\\C)C1(O)Cc2c(O)c4c(c(O)c2C(OC2CC(N)C(O)C(C)O2)C1)C(=O)c1c(OC)cccc1C4=O)CC3OC1CC(N)C(O)C(C)O1", "note": "(stereo unspecified)", "values": [
      {"measurement": "T/C", "setting": "T/C endpoint: median tumor weight (est.), dose: 0.75 mg/kg/injection, schedule: Q07DX005 (ip), vehicle: water, evaluated on day 30", "value": "130 % of control"},
      {"measurement": "T/C", "setting": "T/C endpoint: median tumor weight (est.), dose: 6.0 mg/kg/injection, schedule: Q07DX005 (ip), vehicle: water, evaluated on day 30", "value": "136 % of control"},
      {"measurement": "survivor count", "setting": "T/C endpoint: median tumor weight (est.), dose: 48.0 mg/kg/injection, schedule: Q07DX005 (ip), vehicle: water", "value": "1 of 10 on day 30"}
    ]},
    {"smiles": "C[C@H](N)C(=O)N[C@@H]1[C@H]2C(=C(O)C[C@@H](O)[C@@H]2O)C(=O)O[C@@H]1C", "values": [
      {"measurement": "T/C", "setting": "T/C endpoint: median tumor weight change, dose: 500.0 mg/kg/injection, schedule: Q01DX001 (ip), vehicle: saline, evaluated on day 28", "value": "136 % of control"},
      {"measurement": "survivor count", "setting": "T/C endpoint: median tumor weight change, dose: 4000.0 mg/kg/injection, schedule: Q01DX001 (ip), vehicle: saline", "value": "0 of 10 on day 28"}
    ]},
    {"smiles": "CN1C(=O)C(=Cc2ccc(O)cc2)C(=O)N(C)C1=O", "values": [
      {"measurement": "T/C", "setting": "T/C endpoint: median tumor weight change, dose: 125.0 mg/kg/injection, schedule: Q01DX001 (ip), vehicle: saline with Tween-80, evaluated on day 28", "value": "149 % of control"},
      {"measurement": "T/C", "setting": "T/C endpoint: median tumor weight change, dose: 500.0 mg/kg/injection, schedule: Q01DX001 (ip), vehicle: saline with Tween-80, evaluated on day 28", "value": "137 % of control"},
      {"measurement": "survivor count", "setting": "[1]", "value": "0 of 10 on day 28 and 1 of 10 on day 35"},
      {"measurement": "survivor count", "setting": "[2]", "value": "0 of 10 on day 35 and 2 of 10 on day 28"}
    ]}
  ]
}
